3 molecules from patent publication US20250283871A1, “COMPOSITIONS AND METHODS FOR MODULATING THE INTERACTION BETWEEN SS18-SSX FUSION ONCOPROTEIN AND NUCLEOSOMES” (Dana-Farber Cancer Institute, Inc., priority 2020, published 2025) can be followed below.

The data set deals with BAF complex subunits and histone proteins. Description: Mass spectrometry proteomics of purified HA-SS18 WT and HA-SS18-SSX1 complexes (Tables 5A-5E). Details: species or system human. The conditions noted are these: for Total / Unique: HA-SS18SSX1_CHR_peptides; for Total: total peptides of the identified protein; for Unique: unique peptides of the identified protein; for Total (peptides) / Unique (peptides) / Total (total peptides) / Unique (unique peptides): HEK-293T.

Where [1] appears, read: HA-SS18SSX1_NE_peptides (Table 5B), HA-SS18-SSX1 BAF complex purification from soluble nuclear extract.
Setting [2] is: HA-SS18WT_CHR_peptides: HA-SS18 WT purification from nuclease-treated solubilized chromatin (CHR), label = protein identified.
Setting [3] is: HA-SS18WT_NE_peptides: proteins co-purified with HA-SS18 WT from nuclear extract (NE).
Setting [4] is: HA-SS18SSX1 purification, NE (soluble nuclear extract) fraction, peptides per identified protein.
The mark [5] stands for this setting: HA-SS18WT_CHR_peptides: protein identified in HA-SS18 WT BAF complex purification from nuclease-treated solubilized chromatin (CHR).
The mark [6] stands for this setting: HA-SS18WT_NE_peptides: HA-SS18 WT complexes purified from nuclear extract (NE), label = protein identified (Gene Symbol).

B1: DHX30 (protein, UniProt Q7L2E3 1-1194, looked up)
ATP-dependent RNA helicase …: MFSLDSFRKDRAQHRQRQCKLPPPRLPPMCVNPTPGGTISRASRDLLKEFPQPKNLLNSVIGRALGISHAKDKLVYVHTNGPKKKKVTLHIKWPKSVEVEGYGSKKIDAERQAAAAACQLFKGWGLLGPRNELFDAAKYRVLADRFGSPADSWWRPEPTMPPTSWRQLNPESIRPGGPGGLSRSLGREEEEDEEEELEEGTIDVTDFLSMTQQDSHAPLRDSRGSSFEMTDDDSAIRALTQFPLPKNLLAKVIQIATSSSTAKNLMQFHTVGTKTKLSTLTLLWPCPMTFVAKGRRKAEAENKAAALACKKLKSLGLVDRNNEPLTHAMYNLASLRELGETQRRPCTIQVPEPILRKIETFLNHYPVESSWIAPELRLQSDDILPLGKDSGPLSDPITGKPYVPLLEAEEVRLSQSLLELWRRRGPVWQEAPQLPVDPHRDTILNAIEQHPVVVISGDTGCGKTTRIPQLLLERYVTEGRGARCNVIITQPRRISAVSVAQRVSHELGPSLRRNVGFQVRLESKPPSRGGALLFCTVGILLRKLQSNPSLEGVSHVIVDEVHERDVNTDFLLILLKGLQRLNPALRLVLMSATGDNERFSRYFGGCPVIKVPGFMYPVKEHYLEDILAKLGKHQYLHRHRHHESEDECALDLDLVTDLVLHIDARGEPGGILCFLPGWQEIKGVQQRLQEALGMHESKYLILPVHSNIPMMDQKAIFQQPPVGVRKIVLATNIAETSITINDIVHVVDSGLHKEERYDLKTKVSCLETVWVSRANVIQRRGRAGRCQSGFAYHLFPRSRLEKMVPFQVPEILRTPLENLVLQAKIHMPEKTAVEFLSKAVDSPNIKAVDEAVILLQEIGVLDQREYLTTLGQRLAHISTDPRLAKAIVLAAIFRCLHPLLVVVSCLTRDPFSSSLQNRAEVDKVKALLSHDSGSDHLAFVRAVAGWEEVLRWQDRSSRENYLEENLLYAPSLRFIHGLIKQFSENIYEAFLVGKPSDCTLASAQCNEYSEEEELVKGVLMAGLYPNLIQVRQGKVTRQGKFKPNSVTYRTKSGNILLHKSTINREATRLRSRWLTYFMAVKSNGSVFVRDSSQVHPLAVLLLTDGDVHIRDDGRRATISLSDSDLLRLEGDSRTVRLLKELRRALGRMVERSLRSELAALPPSVQEEHGQLLALLAELLRGPCGSFDVRKTADD
B1: the Total worked out at 4 and the Unique is 4. For the same molecule, under setting [1], the “Total (peptides)” value is listed as 1 and the “Unique (peptides)” value is reported as 1. For the same molecule, under setting [2], the “Total (peptides)” value was 3 and the “Unique (peptides)” value turned out to be 3. In addition, under setting [3], the “Total (peptides)” value was determined as 1 and the “Unique (peptides)” value was found to be 1.

B2: PRPF6 (protein, UniProt O94906 1-941, looked up)
Pre-mRNA-processing factor 6: MNKKKKPFLGMPAPLGYVPGLGRGATGFTTRSDIGPARDANDPVDDRHAPPGKRTVGDQMKKNQAADDDDEDLNDTNYDEFNGYAGSLFSSGPYEKDDEEADAIYAALDKRMDERRKERREQREKEEIEKYRMERPKIQQQFSDLKRKLAEVTEEEWLSIPEVGDARNKRQRNPRYEKLTPVPDSFFAKHLQTGENHTSVDPRQTQFGGLNTPYPGGLNTPYPGGMTPGLMTPGTGELDMRKIGQARNTLMDMRLSQVSDSVSGQTVVDPKGYLTDLNSMIPTHGGDINDIKKARLLLKSVRETNPHHPPAWIASARLEEVTGKLQVARNLIMKGTEMCPKSEDVWLEAARLQPGDTAKAVVAQAVRHLPQSVRIYIRAAELETDIRAKKRVLRKALEHVPNSVRLWKAAVELEEPEDARIMLSRAVECCPTSVELWLALARLETYENARKVLNKARENIPTDRHIWITAAKLEEANGNTQMVEKIIDRAITSLRANGVEINREQWIQDAEECDRAGSVATCQAVMRAVIGIGIEEEDRKHTWMEDADSCVAHNALECARAIYAYALQVFPSKKSVWLRAAYFEKNHGTRESLEALLQRAVAHCPKAEVLWLMGAKSKWLAGDVPAARSILALAFQANPNSEEIWLAAVKLESENDEYERARRLLAKARSSAPTARVFMKSVKLEWVQDNIRAAQDLCEEALRHYEDFPKLWMMKGQIEEQKEMMEKAREAYNQGLKKCPHSTPLWLLLSRLEEKIGQLTRARAILEKSRLKNPKNPGLWLESVRLEYRAGLKNIANTLMAKALQECPNSGILWSEAIFLEARPQRRTKSVDALKKCEHDPHVLLAVAKLFWSQRKITKAREWFHRTVKIDSDLGDAWAFFYKFELQHGTEEQQEEVRKRCESAEPRHGELWCAVSKDIANWQKKIGDILRLVAGRIKNTF
The molecule B2 came in with a Total of 4 and a Unique of 4. Moreover, under setting [4], the “Total (total peptides)” value worked out at 3 and the “Unique (unique peptides)” value was determined as 3. Further, under setting [5], the “Total (total peptides)” value is 1 and the “Unique (unique peptides)” value is reported as 1. Under setting [6], the “Total (peptides)” value is 3 and the “Unique (peptides)” value amounted to 3.

B3: MCM4 (protein, UniProt P33991 2-863, looked up)
DNA replication licensing …: SSPASTPSRRGSRRGRATPAQTPRSEDARSSPSQRRRGEDSTSTGELQPMPTSPGVDLQSPAAQDVLFSSPPQMHSSAIPLDFDVSSPLTYGTPSSRVEGTPRSGVRGTPVRQRPDLGSAQKGLQVDLQSDGAAAEDIVASEQSLGQKLVIWGTDVNVAACKENFQRFLQRFIDPLAKEEENVGIDITEPLYMQRLGEINVIGEPFLNVNCEHIKSFDKNLYRQLISYPQEVIPTFDMAVNEIFFDRYPDSILEHQIQVRPFNALKTKNMRNLNPEDIDQLITISGMVIRTSQLIPEMQEAFFQCQVCAHTTRVEMDRGRIAEPSVCGRCHTTHSMALIHNRSLFSDKQMIKLQESPEDMPAGQTPHTVILFAHNDLVDKVQPGDRVNVTGIYRAVPIRVNPRVSNVKSVYKTHIDVIHYRKTDAKRLHGLDEEAEQKLFSEKRVELLKELSRKPDIYERLASALAPSIYEHEDIKKGILLQLFGGTRKDFSHTGRGKFRAEINILLCGDPGTSKSQLLQYVYNLVPRGQYTSGKGSSAVGLTAYVMKDPETRQLVLQTGALVLSDNGICCIDEFDKMNESTRSVLHEVMEQQTLSIAKAGIICQLNARTSVLAAANPIESQWNPKKTTIENIQLPHTLLSRFDLIFLLLDPQDEAYDRRLAHHLVALYYQSEEQAEEELLDMAVLKDYIAYAHSTIMPRLSEEASQALIEAYVDMRKIGSSRGMVSAYPRQLESLIRLAEAHAKVRLSNKVEAIDVEEAKRLHREALKQSATDPRTGIVDISILTTGMSATSRKRKEELAEALKKLILSKGKTPALKYQQLFEDIRGQSDIAITKDMFEEALRALADDDFLTVTGKTVRLL
Molecule B3 showed a Total of 4 and a Unique of 4. For the same molecule, under setting [2], the “Total (peptides)” value is given as 5 and the “Unique (peptides)” value stood at 5.
